PubChem BioAssay AID652272 | Drosophila RNAi Screening Center – 2013
In all, the deposit lists about 21,000 reagents; this is a random part of those with a known target gene and a result. Of all reagents, 503 (2.4%) were called active. 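Raw plate light values, not normalised; calls rest on replicate z-scores that were not deposited; hits include reporter decreases as well as increases.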 Entries without a mark were called inactive. A plus sign joins genes that one reagent is predicted to hit. No sequences are given here. Not given: the amount of reagent, the time to read-out.

Aim: 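Genes whose knock-down decreases or increases Hedgehog reporter output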 (primary screen)
Cell system: Drosophila clone 8 (Cl8) cells
Reagents: long dsRNA against Drosophila genes
Read-out: 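Plate reader light from a firefly reporter under a ptc promoter fragment that responds to Hedgehog, with Renilla light as transfection reference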
Direction: firefly Hh reporter signal: higher = more ptc reporter light; Renilla reference signal: higher = more Renilla control light
Rule for the call: 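Called a hit if the two-replicate mean z-score lies below -2 or above +3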
Meaning of the calls: active = hit: reporter lowered or raised; inactive = not a hit

| predicted target | dsRNA | firefly Hh reporter signal, replicate 1 | firefly Hh reporter signal, replicate 2 | firefly Hh reporter signal, replicate 3 | Renilla reference signal, replicate 1 | Renilla reference signal, replicate 2 |
| --- | --- | --- | --- | --- | --- | --- |
| side-III (GeneID 4379844) | DRSC12155 | 88112 | 97096 | – | 3665 | 2886 |
| side-III (GeneID 4379844) | DRSC12263 | 68192 | 49421 | – | 2288 | 1440 |
| side-III (GeneID 4379844) | DRSC12264 | 1.10e5 | 1.43e5 | – | 4514 | 4296 |
| CG4949 (GeneID 32691) | DRSC19926 | 1.18e5 | 1.36e5 | – | 2800 | 2861 |
| CG16824 (GeneID 5740834) | DRSC02525 | 1.18e5 | 46098 | – | 2198 | 3973 |
| Ada2b (GeneID 40966) | DRSC16531 | 1.07e5 | 1.59e5 | – | 4465 | 4343 |
| Mctp (GeneID 37165) | DRSC06510 | 88714 | 58234 | – | 2560 | 3977 |
| CG4972 (GeneID 34388) | DRSC02798 | 1.04e5 | 43992 | – | 2809 | 4259 |
| Nepl5 (GeneID 33892) | DRSC03241 | 56492 | 79216 | – | 2499 | 3002 |
| RhoGAP102A (GeneID 43781) | DRSC17110 | 4.69e5 | 2.29e5 | – | 23472 | 4689 |
| RhoGAP102A (GeneID 43781) | DRSC17145 | 74729 | 1.94e5 | – | 2517 | 7693 |
| Vha14-1 (GeneID 36731) | DRSC07571 | 98100 | 39971 | – | 2541 | 1926 |
| CG8219 (GeneID 38722) | DRSC10971 | 65978 | 62128 | – | 6362 | 3765 |
| Phlpp (GeneID 35178) | DRSC02065 | 1.27e5 | 57525 | – | 2934 | 4803 |
| CG8746 (GeneID 35867) | DRSC07257 | 96514 | 55700 | – | 2064 | 3984 |
| CG31642 (GeneID 326149) | DRSC02919 | 1.31e5 | 80550 | – | 4192 | 3525 |
| MSBP (GeneID 32548) | DRSC20146 | 94496 | 84837 | – | 2841 | 1987 |
| Akr1B (GeneID 39304) | DRSC10581 | 91234 | 71413 | – | 4468 | 3244 |
| CREG (GeneID 42092) | DRSC16595 | 68978 | 1.02e5 | – | 1831 | 2536 |
| ZnT49B (GeneID 36393) | DRSC07225 | 1.04e5 | 59397 | – | 2480 | 3705 |
| CR31824 (GeneID 10178848) | DRSC01517 | 92387 | 2.33e5 | – | 2193 | 10644 |
| CG33775 (GeneID 3772054) | DRSC05353 | 1.49e5 | 2.07e5 | – | 3602 | 9571 |
| CG5746 (GeneID 42903) | DRSC15868 | 1.49e5 | 97858 | – | 5677 | 3552 |
| Nplp1 (GeneID 38003) | DRSC04370 | 87012 | 62055 | – | 4304 | 2461 |
| twr (GeneID 40815) | DRSC12491 | 65109 | 74861 | – | 2456 | 2745 |
| glob3 (GeneID 40726) | DRSC12261 | 1.32e5 | 1.69e5 | – | 5169 | 5345 |
| GNBP-like3 (GeneID 37313) | DRSC06385 | 1.05e5 | 42480 | – | 2626 | 2278 |
| Send2 (GeneID 34836) | DRSC01906 | 1.32e5 | 50566 | – | 3350 | 4370 |
| CG43108 (GeneID 12798329) | DRSC05654 | 1.75e5 | 2.77e5 | – | 5012 | 12157 |
| CG10947 (GeneID 35309) | DRSC02111 | 76288 | 50204 | – | 3554 | 2418 |
| Gprk1 (GeneID 3355013) | DRSC20732 | 6.41e5 | 2.28e5 | – | 36266 | 5575 |
| Gprk1 (GeneID 3355013) | DRSC20916 | 6.41e5 | 3.34e5 | – | 22688 | 7141 |
| VhaPPA1-1 (GeneID 45247) | DRSC16170 | 1.21e5 | 59616 | – | 4705 | 2400 |
| Fer2 (GeneID 41961) | DRSC15925 | 1.02e5 | 1.12e5 | – | 1705 | 3683 |
| Ccdc56 + mtTFB1 | DRSC10809 | 1.39e5 | 1.47e5 | – | 5571 | 6272 |
| CG15471 (GeneID 31412) | DRSC18054 | 70032 | 1.92e5 | – | 2065 | 7728 |
| CG5177 (GeneID 34017) | DRSC02824 | 1.17e5 | 97782 | – | 4132 | 4233 |
| NiPp1 (GeneID 44748) | DRSC07307 | 1.26e5 | 72372 | – | 5677 | 3019 |
| Phs (GeneID 39697) | DRSC10827 | 1.09e5 | 58611 | – | 4440 | 2041 |
| Pgam5-2 (GeneID 37899) | DRSC04278 | 68953 | 65158 | – | 1440 | 5229 |
| Gcat (GeneID 39333) | DRSC09719 | 16954 | 55505 | 68972 | 5284 | 5872 |
| Hibch (GeneID 41869) | DRSC15705 | 1.55e5 | 1.15e5 | – | 5864 | 3088 |
| CG13443 (GeneID 37351) | DRSC06403 | 1.05e5 | 46953 | – | 4184 | 3914 |
| CG43109 (GeneID 12798341) | DRSC05754 | 89265 | 1.97e5 | – | 2241 | 8248 |
| Obp19d (GeneID 33040) | DRSC20569 | 82136 | 2.49e5 | – | 1446 | 9527 |
| CG2656 (GeneID 40857) | DRSC12584 | 1.28e5 | 98445 | – | 4842 | 3225 |
| CG34460 (GeneID 5740316) | DRSC06974 | 58565 | 37731 | – | 483 | 2259 |
| Setd3 (GeneID 31638) | DRSC17840 | 71238 | 2.11e5 | – | 2242 | 7514 |
| Setd3 (GeneID 31638) | DRSC18269 | 69333 | 3.28e5 | – | 2362 | 9363 |
| CG3285 (GeneID 33547) | DRSC00589 | 88672 | 66449 | – | 4163 | 2795 |
| Rheb (GeneID 117332) | DRSC12148 | 1.31e5 | 80698 | – | 4777 | 2986 |
| Mst85C (GeneID 41089) | DRSC16746 | 80732 | 98352 | – | 2096 | 3217 |
| LManIII (GeneID 34203) | DRSC03221 | 78099 | 38396 | – | 2067 | 3844 |
| CG7194 (GeneID 38933) | DRSC10784 | 36617 | 55437 | – | 3106 | 4032 |
| Acbp4 (GeneID 38781) | DRSC11023 | 48887 | 61673 | – | 5553 | 4358 |
| fkh (GeneID 43383) | DRSC16949 | 95815 | 1.39e5 | – | 3508 | 3795 |
| CG33494 (GeneID 2768686) | DRSC13715 | 44087 | 2.97e5 | – | 10352 | 6201 |

Part of the list above, showing only “firefly Hh reporter signal, replicate 1”.
Nplp1 (GeneID 38003) [DRSC04370]	87012
twr (GeneID 40815) [DRSC12491]	65109
glob3 (GeneID 40726) [DRSC12261]	1.32e5
GNBP-like3 (GeneID 37313) [DRSC06385]	1.05e5
Send2 (GeneID 34836) [DRSC01906]	1.32e5
CG43108 (GeneID 12798329) [DRSC05654]	1.75e5
CG10947 (GeneID 35309) [DRSC02111]	76288
Gprk1 (GeneID 3355013) [DRSC20732]	6.41e5
Gprk1 (GeneID 3355013) [DRSC20916]	6.41e5
